# Experimental data: patent publication US20120128788A1, “COLLAGEN PRODUCTION ENHANCER” (SOFSERA CORPORATION, priority 2009, published 2012)
# Tested on: Fibroblasts of a normal human
# Assay: Test for determining activity of fibroblast to enhance type I collagen production (ELISA of culture medium)
# Type: cell-based
# Conditions: positive control, 25 μM, 24 h, n=6
# Method: Fibroblasts of a normal human were cultured for 24 hours in 0.5% FBS-DMEM culture medium containing the test sample, and the amount of collagen in the culture medium was quantified by ELISA. The test was carried out by repeating six times for each condition (n=6). As a positive control (P.C.), magnesium ascorbyl phosphate (VCPMg) was used. The test samples employed were the calcined hydroxyapatite that is produced in the Production Example 1 and the non-calcined hydroxyapatite that is used in the Production Example 2.
compound,measurement,value
"O=C1O[C@H]([C@@H](O)CO)C([O-])=C1OP(=O)([O-])[O-].O=C1O[C@H]([C@@H](O)CO)C([O-])=C1OP(=O)([O-])[O-].[Mg+2].[Mg+2].[Mg+2] [VC-PMg, magnesium ascorbyl phosphate]",Protein Mean ± SD,6.99 ± 0.56 μg/well and 6.36 ± 0.21 μg/well

# Where “and” joins values, the source holds several entries; their conditions need not be identical. Equal entries are not always repeated.
